Patent US20240307420A1, “IMPROVED METHODS FOR THE USE OF PSYCHEDELICS” (TRYP Therapeutics Inc., priority 2021, published 2024)
At least one compound was matched to its structure with a doubt left. Some entries share one result that the patent states for a list of compounds.

Assays:
[1] = system: rats; assay: Head twitching response (HTR) after one-hour intravenous infusion, video recording; format: in vivo, Sprague Dawley rats; conditions: for Head-twitching events per animal: 60 minute time period after the one hour 10 mg/kg IV infusion
Description: To assess the pharmacodynamics (PD) of intravenously infused psychedelics, animal head-twitching was recorded as an indicator of achieving the dissociative state. Head twitching response (HTR) is used as a surrogate PD marker for the animals achieving or being in the dissociative or psychedelic state (for example, as described in Zhuk et al., Toxins 2015, 7, 1018-1029; Halberstadt et al., J Psychopharmacol. 2011 25(11): 1548-1561). HTR was also used to determine when the end of the dissociative state occurred following discontinuation of the IV infusion.
To assess HTR, a video monitoring system was used to record the animals in this study from discontinuation of the infusion through to the terminal sampling time point (1-hour post infusion). A camera was positioned such that the animals were visible from above. The recording was saved for review and the time of the observed head-twitching behavior, the duration of the observed behavior, and any additional atypical observations were documented.
The number of head-twitching events observed within the 60 minute time period after the one hour intravenous infusion of each of the 3 rats receiving psilocin or psilocybin, were determined from the video recordings. […] Upon termination of the IV infusion of either psilocin or psilocybin, head twitching activity subsided within 50 minutes, supporting the rapid termination of the dissociative or psychedelic, compared to previously reported termination of the dissociative state after an oral administration of psilocybin.

[2] = system: rats; assay: EEG Lempel-Ziv complexity (LZCN) before, during and after 60 minute intravenous infusion; format: in vivo, Sprague Dawley rats; conditions: three rats
[3] = system: rats; assay: Von Frey assay (VFA) withdrawal threshold in formalin-induced rat pain model; format: in vivo
Text: Chronic pain in rats was induced by injection of formalin into the hind paw. The rats subsequently were intravenously administered psilocybin, and assessed for changes in pain perception over an extended period of time. The formalin pain model is a translational animal model for chronic nociplastic pain (Vanini G., Sleep 2016; 39(1): 133-42), including fibromyalgia, phantom limb pain or complex regional pain syndrome. In the formalin pain model, in addition to experiencing extra pain in the formalin-injected paw, the animal experiences increased pain perception (i.e., hyperalgesia) in extremities not injected with formalin (e.g., the contra-lateral hind paw compared to the one injected with formalin). The pain perception was measured in the contra-lateral paw to assess the potential benefit of psychedelics in nociplastic pain disorders. Reduction in pain perception and the duration of pain reduction were examined following intravenous bolus administration of 10 mg/kg psilocybin, administered over 3 minutes.
Two types of pain perception were measured. First, the Von Frey assay (VFA) was used to measure pain due to pressure exerted on the extremity (i.e., mechanical allodynia). Specifically. […] The minimum amount of force required to evoke a paw withdrawal response in each trial was determined to be the minimum withdrawal threshold for that animal trial. […]

[4] = in vivo; cited from earlier work

Row | SMILES | Head-twitching events per animal [1] | Rats in which head-twitching was observed ([1]; 60 minute period after one hour 10 mg/kg IV infusion) | Temporal LZCN (EEG signal complexity) during infusion ([2]; 10 mg/kg, 60 minute IV infusion, during the 5 minutes after the infusion began, sustained for the duration of the infusion) | Temporal LZCN (EEG signal complexity) after infusion ([2]; following the end of the 60 minute 10 mg/kg IV infusion) | VFA withdrawal threshold versus saline, acute ([3]; day 2, after 10 mg/kg IV over 3 minutes, formalin-injected paw and contra-lateral paw) | Duration of reduced pain sensitivity (VFA) ([3]; single 10 mg/kg IV administration, injected paw and contra-lateral paw) | Threshold for intoxication [4]
1 | CN(C)CCc1c[nH]c2cccc(O)c12 [psilocin, 4-hydroxy-N,N-dimethyltryptamine] | 2-6 | – | – | – | – | – | –
2 | CN(C)CCc1c[nH]c2cccc(OP(=O)(O)O)c12 [psilocybin, [3-(2-dimethylaminoethyl)-1H-indol-4-yl] dihydrogen phosphate] | 2-6 | 2 of 3 | increase in 1-30 Hz signal complexity | rapidly returned to pre-infusion baseline levels | marked and acute difference in withdrawal threshold | at least two weeks | approximately 0.20 mg/kg of body weight
